## Primary screen of a compound library

Amino acid sequences for entries named in this document (tags omitted).
UniProt E9BF75, entry or part of it: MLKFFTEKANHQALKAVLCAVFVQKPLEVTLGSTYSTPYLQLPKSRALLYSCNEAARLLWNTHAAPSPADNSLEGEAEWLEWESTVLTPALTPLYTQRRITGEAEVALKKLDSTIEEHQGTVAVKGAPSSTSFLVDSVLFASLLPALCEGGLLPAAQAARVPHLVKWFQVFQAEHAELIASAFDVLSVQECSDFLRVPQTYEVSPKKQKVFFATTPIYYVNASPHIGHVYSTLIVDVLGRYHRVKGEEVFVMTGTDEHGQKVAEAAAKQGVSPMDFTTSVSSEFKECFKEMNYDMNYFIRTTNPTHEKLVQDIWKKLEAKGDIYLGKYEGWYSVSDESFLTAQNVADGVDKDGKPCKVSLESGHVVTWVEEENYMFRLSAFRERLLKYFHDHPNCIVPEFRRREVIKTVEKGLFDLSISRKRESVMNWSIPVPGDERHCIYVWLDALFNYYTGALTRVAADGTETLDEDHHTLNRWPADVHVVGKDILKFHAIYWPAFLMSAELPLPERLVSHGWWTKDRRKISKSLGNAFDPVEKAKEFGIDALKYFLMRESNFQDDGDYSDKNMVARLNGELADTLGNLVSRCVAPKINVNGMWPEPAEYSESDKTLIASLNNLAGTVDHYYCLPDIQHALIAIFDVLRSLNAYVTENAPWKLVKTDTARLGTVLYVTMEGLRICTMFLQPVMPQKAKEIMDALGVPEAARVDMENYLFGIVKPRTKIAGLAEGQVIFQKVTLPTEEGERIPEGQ

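Methionyl-tRNA synthetase (putative), Leishmania donovani (UniProt E9BF75). Primary screen of methionyl-tRNA synthetase; the read-out is not stated. The test concentration is not given. Values are per cent inhibition. Of about 68,000 compounds tested this way, about 24 (0.035%) reached 50% or more in at least one test.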

All values are in %.
The controls that fix the scale are not given in the record; negative values are as filed.
Compounds were drawn at random from those tested, without regard to their results.

compound | Inhibition
Cc1ccsc1CN1CCc2c(nc(N3CCCCC3C)[nH]c2=O)C1 (centres unmarked) | 2.588
C[C@@H]1CN(C(=O)Cn2ccc3ncccc3c2=O)C[C@H](C)O1 | 19.64
CCOc1ccc(S(=O)(=O)N(C)Cc2cnn(CC)c2)cc1 | -34.42
Cc1ccc2nc(CN(C)Cc3[nH]nc4c3CCC4)[nH]c2c1C | 5.415
CNC(=O)N1CC[C@@H]2CN(Cc3cccc(Cl)c3)S(=O)(=O)[C@@H]2CC1 | 10.37
CC(=O)NCCCNCc1c(C)nn(CC(C)C)c1N(C)C | 12.1
CCn1cc(CN2CCCN(C(=O)CCN3CCCC3=O)CC2)cn1 | 8.262
O=C1CNc2ncnc(Nc3cnn(Cc4ccccc4)c3)c2N1 | 13.44
CCC(=O)c1ccc(OCC(=O)N(C)C(C)c2ccon2)cc1 (centres unmarked) | -4.91
Cc1c[nH]c(CN(C)C(=O)C2CC(=O)N(Cc3ccncc3)C2)n1 (centres unmarked) | 6.32
Cc1ccc(OCC2CCCN(Cc3ccc(CO)o3)C2)cc1 (centres unmarked) | 14.97
CN(c1nc(Cn2cnccc2=O)cs1)C1CC1 | 15.38
Cc1noc(CN2CCN(c3cncc(Cl)n3)CC2)n1 | 18.38
CCc1nc(C2CCCN2CCc2cccs2)no1 (centres unmarked) | 0.2577
CCC1CN(CC(=O)NCCN2CCCCC2)c2ccccc2S1 (centres unmarked) | 14.21
Cc1n[nH]cc1CNC1CCN(c2ccc(F)cc2)CC1 | 17.08
CNC(=O)C1Cn2ccnc2C2(CCN(Cc3cccnc3)CC2)O1 (centres unmarked) | 20.54
CN1C[C@@H](F)[C@@H](OCc2nc3ccccc3n2C)C1 | 8.242
CC(=O)N1CCCCCC1C1CCN(Cc2nc(C3CC3)no2)CC1 (centres unmarked) | 6.812
CN(C)c1cc(C(=O)N2CCN(c3cnccn3)CC2)ccn1 | 7.975
CCC(=O)N(C)CC(=O)Nc1ccc(Br)cn1 | -1.399
Cc1nnc([C@H]2CC[C@@H]3[C@@H](CCN3Cc3c(C)noc3C)O2)o1 | 17.15
COc1ccnc(N2CCC(=O)N(CC3CC3)C(C(C)C)C2)n1 (centres unmarked) | 12.04
CC(C)n1cc(S(=O)(=O)N2CCSCC2)cn1 | 21.36
CN(C)CCNc1cc(-c2ncccn2)c2cc[nH]c2n1 | 10.12
CN1CC(C(=O)NCCc2ccc(Br)cc2F)CC1=O (centres unmarked) | 15.48
COCC1CC2(CCN(C(C)=O)CC2)CN1Cc1csc(C)n1 (centres unmarked) | 8.014
CC(C#N)(NC(=O)Cn1cc(I)cn1)C1CC1 (centres unmarked) | 4.545
Cc1nnc(C(C)N2CCN(Cc3noc(C(C)(C)C)n3)CC2)o1 (centres unmarked) | 11.85
Cc1nc(S(=O)(=O)NCCC(=O)NCc2ccsc2)cn1C | 6.425
Cc1cc(C)n(C2CCCN(C(=O)c3ccn(C)c(=O)c3)C2)n1 (centres unmarked) | 10.65
COc1c(CNCc2ccc(CN3CCOCC3)cc2)c(C)nn1C | 1.818
Cc1ccc(CN(Cc2cccnc2)C2CC(C)(C)NC(C)(C)C2)s1 | 5.822
Cc1cccc(COc2ccc(C(C)N)cc2)c1 (centres unmarked) | 10.16
O=C(COc1ccccc1C(F)(F)F)NCCNC(=O)c1ccccc1 | 1.337
COc1ccc(NC(=O)NCC(C)N2CCc3ccccc32)cc1 (centres unmarked) | 11.54
CCc1nc(CNc2ccc(-c3nc(C4CC4)no3)cn2)no1 | 13.64
O=C(NC1CCc2nccn2C1)c1ccc(NC2CC2)nc1 (centres unmarked) | 21.43
CC(C)NC(=O)C1Cc2nc(-c3ccsc3)sc2N1CC1CC1 (centres unmarked) | 14.52
CC(C)N1CCCC(Cc2nccnc2Cl)CC1 (centres unmarked) | 15.56
O=C1Nc2ccccc2CNC12CCN(CC1CCCC1)CC2 | 8.571
COCCn1c2c(ccc1=O)CCN(C(=O)NC1CC1)CC2 | 4.945
COc1ccccc1C(=O)Nc1c(F)c(C(=O)NCCC(C)C)nn1C | 12.9
COc1cccc(CNC(=O)c2cccnc2SC(C)C)c1 | 13.11
CCCN(CC(=O)OC)S(=O)(=O)c1cnc2c(c1)c(C)nn2C | 11.5
O=C(NCCC(=O)N1CCCC1)c1cccnc1 | 4.826
Cc1cc(C2CCCN(CCC(=O)N3CCc4ccccc43)C2)n[nH]1 (centres unmarked) | 11.45

Some entries from above, unchanged:

{"compound": "CN(C)CCNc1cc(-c2ncccn2)c2cc[nH]c2n1", "Inhibition": 10.12}
{"compound": "CC(=O)NCCCNCc1c(C)nn(CC(C)C)c1N(C)C", "Inhibition": 12.1}
{"compound": "CCOc1ccc(S(=O)(=O)N(C)Cc2cnn(CC)c2)cc1", "Inhibition": -34.42}
{"compound": "COc1ccccc1C(=O)Nc1c(F)c(C(=O)NCCC(C)C)nn1C", "Inhibition": 12.9}
{"compound": "Cc1nnc([C@H]2CC[C@@H]3[C@@H](CCN3Cc3c(C)noc3C)O2)o1", "Inhibition": 17.15}
{"compound": "CC(C#N)(NC(=O)Cn1cc(I)cn1)C1CC1", "stereo": "centres unmarked", "Inhibition": 4.545}

Data taken from ChEMBL document CHEMBL3988442, “University of Dundee, Small-Polar-MMV Screening Library” (2021).